Every entry is a combination with AS-252424 at 5 µM: O=C1NC(=O)/C(=C/c2ccc(-c3ccc(F)cc3O)o2)S1

Drugs:
MK-1775 (0.1 µM): C=CCn1c(=O)c2cnc(Nc3ccc(N4CCN(C)CC4)cc3)nc2n1-c1cccc(C(C)(C)O)n1
CHIR-265 (0.4 µM): Cn1c(Nc2ccc(C(F)(F)F)cc2)nc2cc(Oc3ccnc(-c4ncc(C(F)(F)F)[nH]4)c3)ccc21
decitabine (0.5 µM): Nc1ncn([C@H]2C[C@H](O)[C@@H](CO)O2)c(=O)n1
STA-4783 (0.03 µM): CN(NC(=O)CC(=O)NN(C)C(=S)c1ccccc1)C(=S)c1ccccc1
U73122 (2 µM): COc1ccc2c(c1)CCC1C2CCC2(C)C(NCCCCCCN3C(=O)C=CC3=O)CCC12 (centres undefined)
tipifarnib (0.05 µM): Cn1cncc1[C@@](N)(c1ccc(Cl)cc1)c1ccc2c(c1)c(-c1cccc(Cl)c1)cc(=O)n2C
NVP-TAE684 (0.4 µM): COc1cc(N2CCC(N3CCN(C)CC3)CC2)ccc1Nc1ncc(Cl)c(Nc2ccccc2S(=O)(=O)C(C)C)n1
selumetinib (0.075 µM): Cn1cnc2c(F)c(Nc3ccc(Br)cc3Cl)c(C(=O)NOCCO)cc21
PF-562271 (0.4 µM): CN(c1ncccc1CNc1nc(Nc2ccc3c(c2)CC(=O)N3)ncc1C(F)(F)F)S(C)(=O)=O
PD173074 (0.5 µM): CCN(CC)CCCCNc1ncc2cc(-c3cc(OC)cc(OC)c3)c(NC(=O)NC(C)(C)C)nc2n1
NVP-BEZ235 (0.02 µM): Cn1c(=O)n(-c2ccc(C(C)(C)C#N)cc2)c2c3cc(-c4cnc5ccccc5c4)ccc3ncc21
YM155 (0.002 µM): COCC[n+]1c2c(n(Cc3cnccn3)c1C)C(=O)c1ccccc1C2=O
bexarotene (10 µM): C=C(c1ccc(C(=O)O)cc1)c1cc2c(cc1C)C(C)(C)CCC2(C)C
OSU-03012 (5 µM): NCC(=O)Nc1ccc(-n2nc(C(F)(F)F)cc2-c2ccc3c(ccc4ccccc43)c2)cc1
L-779450 (1 µM): Oc1cc(-c2nc(-c3ccccc3)[nH]c2-c2ccncc2)ccc1Cl
enzastaurin (4 µM): Cn1cc(C2=C(c3cn(C4CCN(Cc5ccccn5)CC4)c4ccccc34)C(=O)NC2=O)c2ccccc21
SU6656 (2 µM): CN(C)S(=O)(=O)c1ccc2c(c1)/C(=C/c1cc3c([nH]1)CCCC3)C(=O)N2
ENMD-2076 (0.2 µM): Cc1cc(Nc2cc(N3CCN(C)CC3)nc(/C=C/c3ccccc3)n2)n[nH]1
ABT-263 (2 µM): CC1(C)CCC(c2ccc(Cl)cc2)=C(CN2CCN(c3ccc(C(=O)NS(=O)(=O)c4ccc(N[C@H](CCN5CCOCC5)CSc5ccccc5)c(S(=O)(=O)C(F)(F)F)c4)cc3)CC2)C1

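Human melanoma cell lines in 1,536-well plates were treated with two drugs together for 72 h, then fixed, stained and imaged. The read-out is the fraction of cleaved-PARP-positive nuclei, in % of that fraction in the DMSO control; 200 means twice the control level of this apoptosis marker. Concentrations were fixed for each drug; these are the higher of two levels. These are primary screening values without error estimates. The marker varies much from line to line, for technical or biological reasons.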
This is part of the screen, not chosen by result.

Second drug: tipifarnib
SK-MEL-2: 87.0
G-361: 56.6

Second drug: U73122
SK-MEL-2: 130
G-361: 169

Second drug: decitabine
SK-MEL-2: 74.2
G-361: 223

Second drug: CHIR-265
SK-MEL-2: 101
G-361: 678

Second drug: SU6656
SK-MEL-2: 86.8
G-361: 251

Second drug: YM155
SK-MEL-2: 100
G-361: 120

Second drug: PF-562271
SK-MEL-2: 103
G-361: 153

Second drug: OSU-03012
SK-MEL-2: 781
G-361: 184

Second drug: PD173074
SK-MEL-2: 63.5
G-361: 148

Second drug: NVP-TAE684
SK-MEL-2: 148
G-361: 210

Second drug: STA-4783
SK-MEL-2: 57.2
G-361: 366

Second drug: bexarotene
SK-MEL-2: 72.6
G-361: 61.8

Second drug: ENMD-2076
SK-MEL-2: 74.1
G-361: 117

Second drug: enzastaurin
SK-MEL-2: 617
G-361: 97.4

Second drug: L-779450
SK-MEL-2: 1060
G-361: 181

Second drug: selumetinib
SK-MEL-2: 176
G-361: 414

Second drug: NVP-BEZ235
SK-MEL-2: 31.3
G-361: 298

Second drug: ABT-263
SK-MEL-2: 380
G-361: 150

Second drug: MK-1775
SK-MEL-2: 106
G-361: 31.9

Values as published with doi:10.1371/journal.pone.0140310, rounded.